Measured values reported in publication PMC8440931, “Physical and Functional Interaction of Mitochondrial Single-Stranded DNA-Binding Protein and the Catalytic Subunit of DNA Polymerase Gamma” (Frontiers in Genetics, 2021).
These are yes or no findings as the source states them, for the method shown.

Biological target: T1, biotinylated mitochondrial single-stranded DNA-binding protein (BTN-mtSSB), wild type (human) (UniProt Q04837)
T1 sequence (chain, biotin (conjugated; site not stated)): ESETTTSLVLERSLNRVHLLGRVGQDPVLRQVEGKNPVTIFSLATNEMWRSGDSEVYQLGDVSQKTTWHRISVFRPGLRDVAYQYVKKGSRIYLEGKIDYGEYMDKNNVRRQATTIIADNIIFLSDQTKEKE
Experiment: BLI; BTN-mtSSB on streptavidin sensors; 120 nM Pol γα alone, replaced by, or preincubated with 120 nM Pol γβ2; both purified

binding: no binding (tested: 120nM)
Substance: dimeric accessory subunit of mitochondrial DNA polymerase gamma (Pol γβ2) (human)
